In PubChem BioAssay AID328 (DTP/NCI, 2004):
The list is a part of this screen's results and no random one: it gathers tests that were run many times, whatever their T/C, doses with no T/C, and many T/C values between a quarter and a half above the control. Further doses and runs are listed elsewhere. T/C is the treated group as % of the vehicle group. Some entries give survivors of the animals treated and no T/C: the source holds a T/C of zero for them, seemingly a mark for toxic or unscored doses. Some doses without a T/C left all or most animals alive at the check, yet need not have been tolerated: the source hardly ever lists a survival T/C far under the control, and the zero likely stands for such cases as well. Counts of survivors are from the toxicity check (mostly the fifth day) where no day follows; animals may have died later. Schedules are NCI's codes, read here as Q, the interval in days (D) or hours (H), X, the number of doses. Some entries hold several experiments; their values stand side by side, smallest first. For survival time, this PubChem deposit counts one and a half times the control or more as active, and values a quarter to a half above the control carry no call in these data; other NCI protocols may use other cut-offs. Some T/C values are followed by the survivors on the day toxicity was checked, most often the fifth; where none is given, no animal had died by that day. Additions like (4×) say how often a value occurs here.

Tested on: BDF1 mice, P388 leukemia ip, median survival T/C
Test: NCI In Vivo Anticancer Drug Screen. Data for tumor model P388 Leukemia (intraperitoneal) in B6D2F1 (BDF1) mice
Conditions: T/C endpoint: median survival time, vehicle: Klucel (hydroxypropylcellulose) (HPC), higher T/C = longer survival
Procedure, shortened: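 In tumour-bearing mice, survival after compound treatment is set against the vehicle group and given as a quotient.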

[1] = dose: 200.0 mg/kg/injection, schedule: Q01DX001 (ip)

O=C1C=CN(C2OC(CO)C(O)C2O)C(=O)C1 (stereo not given)
T/C (dose: 50.0 mg/kg/injection, schedule: Q01DX001 (ip)): 87, 90, 91, 92, 94, 95, 96, 97, 99, 100 (3×), 101, 102, 104, 105, 106, 107 (4×), 108 (2×), 109, 110, 115, 116, 119, 120, 121 % of control | T/C (dose: 50.0 mg/kg/injection, schedule: Q01DX005 (ip), evaluated on day 30): 94, 96, 98 (2×), 100, 102 (2×), 104, 105, 107, 107 [2 of 3 alive], 108, 109 (2×), 112 (2×), 113, 114 (4×), 115, 116, 119, 120 (2×), 122, 125, 128, 132, 139 % of control | T/C (dose: 50.0 mg/kg/injection, schedule: Q01DX005 (ip), evaluated on day 35): 110 and 122 % of control | T/C (dose: 50.0 mg/kg/injection, schedule: Q01DX009 (ip), evaluated on day 30): 96, 98, 100 (2×), 103 (2×), 105, 106 (3×), 107 (3×), 108, 109 (2×), 110, 111 (2×), 112 (3×), 114, 115, 116, 117, 119, 121, 123, 124, 127, 128, 132 % of control | T/C (dose: 50.0 mg/kg/injection, schedule: Q01DX009 (ip), evaluated on day 35): 108 % of control | survivor count (dose: 50.0 mg/kg/injection, schedule: Q01DX009 (ip)): 3 of 3 | T/C (dose: 50.0 mg/kg/injection, schedule: Q04DX002 (ip), evaluated on day 30): 91, 93, 94, 96 (3×), 97, 99 (2×), 101, 102, 104 (3×), 105, 106 (3×), 107 (3×), 108, 110 (2×), 111, 113, 116, 128, 267 % of control | T/C (dose: 50.0 mg/kg/injection, schedule: Q04DX002 (ip), evaluated on day 35): 102 % of control | survivor count (dose: 50.0 mg/kg/injection, schedule: Q04DX002 (ip)): 3 of 3 | T/C (dose: 50.0 mg/kg/injection, schedule: Q04DX003 (ip), evaluated on day 30): 90, 93, 95, 96, 98, 99 (2×), 100 (5×), 102 (2×), 103, 104 (2×), 105, 106 (4×), 107, 108, 109, 110, 112, 113, 118 % of control | T/C (dose: 50.0 mg/kg/injection, schedule: Q04DX003 (ip), evaluated on day 35): 118 % of control | survivor count (dose: 50.0 mg/kg/injection, schedule: Q04DX003 (ip)): 3 of 3 | T/C (dose: 100.0 mg/kg/injection, schedule: Q01DX001 (ip)): 90, 91, 95 (2×), 96, 97 (2×), 98 (2×), 99, 100 (5×), 101 (4×), 102 (3×), 104, 106 (2×), 110, 111, 112, 115, 127 % of control | T/C (dose: 100.0 mg/kg/injection, schedule: Q01DX005 (ip), evaluated on day 30): 93, 97, 98, 100 (2×), 105, 106 (3×), 107 (2×), 109 (2×), 110, 112 (2×), 113, 114 (2×), 117, 119, 121 (2×), 122 (3×), 122 [4 of 6 alive], 123, 124, 139 % of control | T/C (dose: 100.0 mg/kg/injection, schedule: Q01DX005 (ip), evaluated on day 35): 120 and 121 % of control | survivor count (dose: 100.0 mg/kg/injection, schedule: Q01DX005 (ip)): 3 of 3 | T/C (dose: 100.0 mg/kg/injection, schedule: Q01DX009 (ip), evaluated on day 30): 94, 100, 101, 102, 102 [2 of 3 alive], 103, 106, 107, 108, 111 (5×), 112, 113 [5 of 6 alive], 115 (3×), 117, 118, 119 (2×), 120, 122, 123, 125, 127, 128, 131, 132, 136, 138 % of control | T/C (dose: 100.0 mg/kg/injection, schedule: Q01DX009 (ip), evaluated on day 35): 103 % of control | survivor count (dose: 100.0 mg/kg/injection, schedule: Q01DX009 (ip)): 3 of 3 | T/C (dose: 100.0 mg/kg/injection, schedule: Q04DX002 (ip), evaluated on day 30): 91 (2×), 94, 96, 97 [5 of 6 alive], 98, 99 (3×), 100 (2×), 102 (2×), 103 (2×), 104 (3×), 106 (3×), 107 (2×), 108 (2×), 109, 120, 128, 144 % of control | T/C (dose: 100.0 mg/kg/injection, schedule: Q04DX002 (ip), evaluated on day 35): 105 % of control | survivor count (dose: 100.0 mg/kg/injection, schedule: Q04DX002 (ip)): 3 of 3 | T/C (dose: 100.0 mg/kg/injection, schedule: Q04DX003 (ip), evaluated on day 30): 92, 93 (2×), 94, 95, 97, 98 (2×), 99, 100, 101, 103 (2×), 104, 105 (2×), 106 (2×), 107, 108 (5×), 111 (3×), 115, 116, 125, 126 % of control | T/C (dose: 100.0 mg/kg/injection, schedule: Q04DX003 (ip), evaluated on day 35): 121 % of control | T/C [1]: 92, 94, 95, 97, 99 (2×), 100 (2×), 101, 102 (3×), 103, 104 (2×), 105 (2×), 106, 107 (3×), 107 [5 of 6 alive], 108 (2×), 111, 112, 129, 139, 140 % of control | survivor count [1]: 6 of 6 | T/C (dose: 200.0 mg/kg/injection, schedule: Q01DX005 (ip), evaluated on day 30): 98, 103 (2×), 104, 105 (3×), 107 (2×), 109, 111 (2×), 112 (2×), 116, 118 (2×), 119, 121 (2×), 122 (3×), 123, 126, 127, 129, 133, 135 % of control (2×) | T/C (dose: 200.0 mg/kg/injection, schedule: Q01DX005 (ip), evaluated on day 35): 113 and 126 % of control [5 of 6 alive] | survivor count (dose: 200.0 mg/kg/injection, schedule: Q01DX005 (ip)): 6 of 6 | T/C (dose: 200.0 mg/kg/injection, schedule: Q01DX009 (ip), evaluated on day 30): 89, 95, 96, 96 [2 of 3 alive], 97 (3×), 98, 99 (2×), 100, 101, 102 (2×), 103, 105, 106, 107, 108, 109, 110 (2×), 111, 112 (2×), 113, 115, 116, 117, 118, 122 (2×), 139, 140 % of control | T/C (dose: 200.0 mg/kg/injection, schedule: Q01DX009 (ip), evaluated on day 35): 112 % of control | survivor count (dose: 200.0 mg/kg/injection, schedule: Q01DX009 (ip)): 1 of 3 | T/C (dose: 200.0 mg/kg/injection, schedule: Q04DX002 (ip), evaluated on day 30): 91, 92, 93, 94 [5 of 6 alive], 95 (2×), 98 (2×), 99 (2×), 100, 101, 102, 106 (3×), 107 (4×), 108, 110 (2×), 111 (3×), 112, 113, 115 % of control | T/C (dose: 200.0 mg/kg/injection, schedule: Q04DX002 (ip), evaluated on day 35): 119 % of control | survivor count (dose: 200.0 mg/kg/injection, schedule: Q04DX002 (ip)): 2 of 3 | T/C (dose: 200.0 mg/kg/injection, schedule: Q04DX003 (ip), evaluated on day 30): 90, 92, 93, 94, 96, 97, 98, 101, 103 (3×), 104, 105, 106 (2×), 106 [5 of 6 alive], 107 (3×), 108 (2×), 109 (2×), 110, 111, 115, 117, 118, 123, 126 % of control | T/C (dose: 200.0 mg/kg/injection, schedule: Q04DX003 (ip), evaluated on day 35): 119 % of control | survivor count (dose: 200.0 mg/kg/injection, schedule: Q04DX003 (ip)): 3 of 3 | T/C (dose: 400.0 mg/kg/injection, schedule: Q01DX001 (ip)): 88, 91, 95 (2×), 95 [5 of 6 alive], 96, 97, 98 (2×), 99, 100 (2×), 101 (2×), 102, 103, 105, 106 (2×), 107 (2×), 108, 109, 110 (2×), 111, 112, 115, 117, 125 % of control | T/C (dose: 400.0 mg/kg/injection, schedule: Q01DX005 (ip), evaluated on day 30): 94, 97, 108, 110, 112, 113, 114 (5×), 115 (2×), 117, 122 [5 of 6 alive], 123 (3×), 124, 128, 129 [2 of 3 alive], 130, 133, 134, 136, 142, 153 % of control | T/C (dose: 400.0 mg/kg/injection, schedule: Q01DX005 (ip), evaluated on day 35): 96 and 108 % of control | survivor count (dose: 400.0 mg/kg/injection, schedule: Q01DX005 (ip)): 5 of 6, 3 of 3, 6 of 6 | T/C (dose: 400.0 mg/kg/injection, schedule: Q01DX009 (ip), evaluated on day 30): 86 (2×), 87, 92 (2×), 94, 97, 99, 100 (4×), 103 (4×), 104, 105, 106 (2×), 108, 109, 110, 111, 119 (2×), 121 (2×), 122, 136 % of control | T/C (dose: 400.0 mg/kg/injection, schedule: Q01DX009 (ip), evaluated on day 35): 94 % of control | survivor count (dose: 400.0 mg/kg/injection, schedule: Q01DX009 (ip)): 2 of 3, 3 of 3, 6 of 6 | T/C (dose: 400.0 mg/kg/injection, schedule: Q04DX002 (ip), evaluated on day 30): 91, 92, 95 (2×), 96 (2×), 99, 101 (4×), 103 (2×), 104, 105, 107, 108, 109, 111 (2×), 112 (2×), 113, 115, 116 (2×), 119, 122 % of control [5 of 6 alive] | T/C (dose: 400.0 mg/kg/injection, schedule: Q04DX002 (ip), evaluated on day 35): 102 % of control | survivor count (dose: 400.0 mg/kg/injection, schedule: Q04DX002 (ip)): 3 of 3 and 6 of 6 | T/C (dose: 400.0 mg/kg/injection, schedule: Q04DX003 (ip), evaluated on day 30): 92, 93, 96 (2×), 97, 98 (2×), 99, 100 (4×), 101 (3×), 104, 105 (2×), 106, 108, 109 (3×), 110, 111, 112, 113, 115, 119, 120, 252 % of control | T/C (dose: 400.0 mg/kg/injection, schedule: Q04DX003 (ip), evaluated on day 35): 118 % of control
